These are yes or no findings as the source states them, for the method shown. Some results given as binding are weak or reduced against the parent protein; the word gives no strength.
T1: wild type, full length murine TNFR2 (mouse) (UniProt P25119)
T1 sequence (looked up): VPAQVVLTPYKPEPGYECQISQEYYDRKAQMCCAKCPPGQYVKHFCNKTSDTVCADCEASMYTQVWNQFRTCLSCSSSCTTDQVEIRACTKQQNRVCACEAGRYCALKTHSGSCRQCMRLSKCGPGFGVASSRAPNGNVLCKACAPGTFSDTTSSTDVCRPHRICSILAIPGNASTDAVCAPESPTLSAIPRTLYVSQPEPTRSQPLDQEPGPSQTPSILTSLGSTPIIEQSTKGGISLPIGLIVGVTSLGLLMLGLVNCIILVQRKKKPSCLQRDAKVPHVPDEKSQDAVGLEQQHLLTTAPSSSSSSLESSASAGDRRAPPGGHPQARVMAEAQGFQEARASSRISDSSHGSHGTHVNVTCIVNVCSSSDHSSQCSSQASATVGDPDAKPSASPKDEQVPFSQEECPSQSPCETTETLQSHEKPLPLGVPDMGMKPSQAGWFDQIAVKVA


Each binder was assayed against T1, wild type, full length murine TNFR2 (mouse) (assay: flow cytometry, activated mouse CD4+ T cells).

| binding | Binder |
| --- | --- |
| binds | 005-A05 (antibody, V domains shown) VH: EVQLLESGGGLVQPGGSLRLSCAASGFTFSSYAMSWVRQAPGKGLEWVSTIIGSGANTWYADSVKGRFTISRDNSKNTLYLQMNSLRAEDTAVYYCARHEGYYYYGMDVWGQGTLVTVSS VL: QSVLTQPPSASGTPGQRVTISCTGSSSNIGAGYVVHWYQQLPGTAPKLLIYGNSNRPSGVPDRFSGSKSGTSASLAISGLRSEDEADYYCAAWDDSLNGRVFGGGTKLTVLG |

These binders were tested against T1, wild type, full length murine TNFR2 (mouse) (assay: flow cytometry on activated mouse CD4+ T cells, MFI minus isotype [cont. E]).

| binding | Binder |
| --- | --- |
| binds | 005-A05 (antibody, V domains shown) VH: EVQLLESGGGLVQPGGSLRLSCAASGFTFSSYAMSWVRQAPGKGLEWVSTIIGSGANTWYADSVKGRFTISRDNSKNTLYLQMNSLRAEDTAVYYCARHEGYYYYGMDVWGQGTLVTVSS VL: QSVLTQPPSASGTPGQRVTISCTGSSSNIGAGYVVHWYQQLPGTAPKLLIYGNSNRPSGVPDRFSGSKSGTSASLAISGLRSEDEADYYCAAWDDSLNGRVFGGGTKLTVLG |

Each binder was assayed against Cynomolgus TNFR2 (cynomolgus (M. fascicularis)) (assay: flow cytometry on stimulated cynomolgus CD4+ T cells, % TNFR2+ over isotype).

| binding | Binder |
| --- | --- |
| binds | 001-H10 (antibody, V domains shown) VH: EVQLLESGGGLVQPGGSLRLSCAASGFTFDDYGMSWVRQAPGKGLEWVSVIYSGGSTYYADSVKGRFTISRDNSKNTLYLQMNSLRAEDTAVYYCARDRSSSWYRDGMDVWGQGTLVTVSS VL: QSVLTQPPSASGTPGQRVTISCTGSSSNIGAGYDVHWYQQLPGTAPKLLIYGNSNRPSGVPDRFSGSKSGTSASLAISGLRSEDEADYYCAAWDDSLSGWVFGGGTKLTVLG |
| binds | 004-E08 (antibody, V domains shown) VH: EVQLLESGGGLVQPGGSLRLSCAASGFTFSRYWMHWVRQVPGKGLEWVSGISDSGVVTYYADSVKGRFTISRDNSKNTLYLQMNSLRAEDTAVYYCARAQSVAFDIWGQGTLVTVSS VL: QSVLTQPPSASGTPGQRVTISCSGSSSNIGAGHDVHWYQQLPGTAPKLLIYYDDLLPSGVPDRFSGSKSGTSASLAISGLRSEDEADYYCAAWDDSLSGWVFGGGTKLTVLG |
| binds | 001-F06 (antibody, V domains shown) VH: EVQLLESGGGLVQPGGSLRLSCAASGFTFSSYAMHWVRQAPGKGLEWVSAISGGATTTYYADSVKGRFTISRDNSKNTLYLQMNSLRAEDTAVYYCAKGGTGDPYYFDYWGQGTLVTVSS VL: QSVLTQPPSASGTPGQRVTISCTGSSSNIGAGYDVHWYQQLPGTAPKLLIYRNNQRPSGVPDRFSGSKSGTSASLAISGLRSEDEADYYCAARDDGLSGPVFGGGTKLTVLG |
| binds | 005-B02 (antibody, V domains shown) VH: EVQLLESGGGLVQPGGSLRLSCAASGFTFSDYYMSWIRQAPGKGLEWVALIWYDGGNEYYADSVKGRFTISRDNSKNTLYLQMNSLRAEDTAVYYCVRETGNYGMDVWGQGTLVTVSS VL: QSVLTQPPSASGTPGQRVTISCTGSSSNIGAGYDVHWYQQLPGTAPKLLIYRNNQRPSGVPDRFSGSKSGTSASLAISGLRSEDEADYYCATWDDRVNGPVFGGGTKLTVLG |
| binds | 001-G10 (antibody, V domains shown) VH: EVQLLESGGGLVQPGGSLRLSCAASGFTFSAYGMHWVRQAPGKGLEWVAVVSYDGREKHYADSVKGRFTISRDNSKNTLYLQMNSLRAEDTAVYYCARSDGGYDSDSGYYWGQGTLVTVSS VL: QSVLTQPPSASGTPGQRVTISCSGSTSNIGSNFVYWYQQLPGTAPKLLIYDNNKRPSGVPDRFSGSKSGTSASLAISGLRSEDEADYYCSSYAYSDNILFGGGTKLTVLG |

Continued, binder first:

| Binder | binding |
| --- | --- |
| 001-A09 (antibody, V domains shown) VH: EVQLLESGGGLVQPGGSLRLSCAASGFTFSSNYMSWVRQAPGKGLEWVSVISGSGGSTYYADSVKGRFTISRDNSKNTLYLQMNSLRAEDTAVYYCARDRGWFDPWGQGTLVTVSS VL: QSVLTQPPSASGTPGQRVTISCSGSRSNIDNSYVSWYQQLPGTAPKLLIYRNNQRPSGVPDRFSGSKSGTSASLAISGLRSEDEADYYCATWDDSLSGPVFGGGTKLTVLG | binds |
| 001-B05 (antibody, V domains shown) VH: EVQLLESGGGLVQPGGSLRLSCAASGFTFSNAWMSWVRQAPGKGLEWVSSISSASGYIYYGDSVKGRFTISRDNSKNTLYLQMNNLRAEDTAVYYCARGTLYGDFDEFWGQGTLVTVSS VL: QSVLTQPPSASGTPGQRVTISCSGSSSNIGNNAVNWYQQLPGTAPKLLIYGNTNRPSGVPDRFSGSKSGTSASLAISGLRSEDEADYYCQSYDSSLSGYVVFGGGTKLTVLG | binds |
| 001-F02 (antibody, V domains shown) VH: EVQLLESGGGLVQPGGSLRLSCAASGFTFSDYYMSWVRQAPGKGLEWVANINTDGSEKYYLDSVKGRFTISRDNSKNTLYLQMNSLRAEDTAVYYCAREEYGAFDIWGQGTLVTVSS VL: QSVLTQPPSASGTPGQRVTISCSGSSSNIGSNTVNWYQQLPGTAPKLLIYDNNKRPSGVPDRFSGSKSGTSASLAISGLRSEDEADYYCQSFDRGLSGSIVFGGGTKLTVLG | binds |
| 001-C05 (antibody, V domains shown) VH: EVQLLESGGGLVQPGGSLRLSCAASGFTFSSNEMSWIRQAPGKGLEWVSVIYSGGSTYYADSVKGRFTISRDNSKNTLYLQMNSLRAEDTAVYYCARREGWLVPFDYWGQGTLVTVSS VL: QSVLTQPPSASGTPGQRVTISCSGSSSNIGSNTVNWYQQLPGTAPKLLIYGNIIRPSGVPDRFSGSKSGTSASLAISGLRSEDEADYYCQSFDTTLSGSIVFGGGTKLTVLG | binds |
| 001-C03 (antibody, V domains shown) VH: EVQLLESGGGLVQPGGSLRLSCAASGFTFSNAWMSWVRQAPGKGLEWVSAISVSGINTYYADSVKGRFTISRDNSKNTLYLQMNSLRAEDTAVYYCARDTGSLGVDYWGQGTLVTVSS VL: QSVLTQPPSASGTPGQRVTISCSGSSSNIGSNTVNWYQQLPGTAPKLLIYRNNQRPSGVPDRFSGSKSGTSASLAISGLRSEDEADYYCQSYDSSLSISVFGGGTKLTVLG | binds |
| 001-E06 (antibody, V domains shown) VH: EVQLLESGGGLVQPGGSLRLSCAASGFTFSSNYMSWVRQAPGKGLEWVALIWYDGSNKYYADSVKGRFTISRDNSKNTLYLQMNSLRAEDTAVYYCAKDPLFDSWGQGTLVTVSS VL: QSVLTQPPSASGTPGQRVTISCTGRSSNIGAGYDVHWYQQLPGTAPKLLIYDNNKRPSGVPDRFSGSKSGTSASLAISGLRSEDEADYYCAAWDDSLNGPVFGGGTKLTVLG | binds |
| 001-B09 (antibody, V domains shown) VH: EVQLLESGGGLVQPGGSLRLSCAASGFTFSRHAMNWVRQAPGKGLEWVSSISTGSSYIDYADSVKGRFTISRDNSKNTLYLQMNSLRAEDTAVYYCAREKGHYYYGMDVWGQGTLVTVSS VL: QSVLTQPPSASGTPGQRVTISCTGSSSNIGAGYDVHWYQQLPGTAPKLLIYGNSYRPSGVPDRFSGSKSGTSASLAISGLRSEDEADYYCQSYDTSLSAYVVFGGGTKLTVLG | binds |

These binders were tested against T1, wild type, full length murine TNFR2 (mouse) (assay: flow cytometry on activated mouse CD4+ T cells, suboptimal mAb concentration).

| binding | Binder |
| --- | --- |
| binds | 005-A05 (antibody, V domains shown) VH: EVQLLESGGGLVQPGGSLRLSCAASGFTFSSYAMSWVRQAPGKGLEWVSTIIGSGANTWYADSVKGRFTISRDNSKNTLYLQMNSLRAEDTAVYYCARHEGYYYYGMDVWGQGTLVTVSS VL: QSVLTQPPSASGTPGQRVTISCTGSSSNIGAGYVVHWYQQLPGTAPKLLIYGNSNRPSGVPDRFSGSKSGTSASLAISGLRSEDEADYYCAAWDDSLNGRVFGGGTKLTVLG |

From US20250388690A1
